Values are the deposited “Percent Effect”, in %.
The controls that fix the scale are not given in the record; negative values are as filed.
The compounds are a random part of those screened.
Two or more numbers in one place are separate tests of the same structure; such repeats can differ widely.

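Viability assay of Plasmodium falciparum sporozoites; the read-out is not stated. The concentration is filed as 10 mM, unlikely as a test dose, so the dose is not known. Higher reads as lower viability (inferred: compounds with an IC50 in retests scored well above the rest). Strong results were mostly tested again. About 34,000 compounds were tested under these conditions; 0.84% (about 280) showed 50% or more at least once.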

CN(C)C(=O)N1Cc2nnn(C)c2C(COCC2CC2)C1 (stereo not shown) gave -12.63%. Nc1nonc1C(=O)N1Cc2ccccc2OC2(CCOCC2)C1 read -1.904%. COc1ccc(CNc2ncc(-c3cc(C)no3)c(C(C)C)n2)cc1 gave 8.832%. CC(C)(C)c1noc(CN2CCCc3cc(OC(F)(F)F)ccc32)n1 gave -6.785% and -7.627%. Cc1nc(C)n(CC2CCCN2Cc2nc(-c3ccsc3)no2)n1 (stereo not shown) gave 8.149% and -5.476% and 2.416%. With CN(C)c1ncc(-c2cc(C(=O)NCCO)n(CC3CC3)c2)cn1.O=C(O)C(F)(F)F the screen gave -0.2686%.

With CCOc1ccc(S(=O)(=O)NCc2cccnc2N(C)C)cc1 the screen gave 17.19%. O=C(c1cc(=O)[nH]c(=O)[nH]1)N1CCCCC1c1nc2cc(F)ccc2[nH]1 (stereo not shown) gave -14.33%. Result for O=C(O)C(F)(F)F.O=C(O)C(F)(F)F.[H][C@]12CCC(=O)N(Cc3cccc(C)n3)[C@@]1([H])CCN2CC(=O)N(C)C was 18.01%. Result for CCCc1n[nH]c(C2CN(CCS(=O)(=O)CC)CCO2)n1 (stereo not shown) was 12.45%. For [H][C@]12CC[C@]([H])(CN(C(=O)N(C)C)C1)N(C(=O)c1ccccc1SC)C2 the result was 1.364% and 1.711%. Result for c1coc(CN2CCO[C@@]3(CCC[C@@H]3COCc3nccs3)C2)c1 was -4.725%.

Cc1cc(C)cc(N2CCN(Cc3cccc(CCN)c3)CC2=O)c1 read -26.92%. For COCCN1CC(C(=O)NCc2cccnc2-n2cccn2)CC1=O (stereo not shown) the result was -2.755%. With CCC1CN(C(=O)NCCOc2ccc3c(c2)OCO3)CCO1 (stereo not shown) the screen gave -0.7111%. Result for CC(C)c1noc(CCC(=O)NCC2CC2)n1 was 9.816%. For CSCCNC(=O)C1CCC(=O)N(C2CCCC2)C1 (stereo not shown) the result was -8.876%. Result for Cc1ncsc1C(=O)NCc1cccs1 was 8.939%.

CC(NC(=O)NCCCn1ccnc1)c1ccc2c(c1)CCC(=O)N2 (stereo not shown) gave 8.635%. Result for NS(=O)(=O)CC1CCCN(C(=O)CCCC2CCCC2)C1 (stereo not shown) was -7.72%. For COCCC(=O)NCCn1nc(C2CCNC2)c2cccnc21.Cl (stereo not shown) the result was -1.243%. [H][C@@]12C[C@H](C(=O)NC)[C@@]([H])(CN(C(=O)NC(C)C)C1)O2 read 3.152%. Result for O=C(NCCN1CCNCC1)c1c(O)c2ccccc2[nH]c1=O was 9.43%. Result for COCCN1CCC(Cc2cncc(-c3ccc(C(=O)O)cc3)n2)CC1 was 11.25%.

Result for Cc1nc(CN2CCCN(CC(=O)Nc3cccnc3)CC2)no1 was -0.6936%. O=C(O)C(F)(F)F.O=C(O)C(F)(F)F.[H][C@@]12CCCO[C@]1([H])[C@H](N(C)C)CN(Cc1ccoc1)C2 gave -5.481%. CCC1(CO)CCCN(c2ncccc2C#N)C1 (stereo not shown) gave -5.294%. For CN1C[C@H](O)[C@]2(CCN(Cc3ccc(F)c(F)c3)C2)S1(=O)=O the result was 9.474%. Cc1ccc(CNCc2nnc3n2CCCC3C(F)(F)F)o1 (stereo not shown) gave 4.292%. Cc1nc(CN2CCC3(CC2)C(=O)N(C)CCN3C)cs1.O=C(O)C(F)(F)F.O=C(O)C(F)(F)F.O=C(O)C(F)(F)F read 10.87%.

For Cc1cc(CN(C)C(=O)NCc2cccc(N3CCCC3=O)c2)no1 the result was 7.319%.

Some entries from above, unchanged:

compound,effect
COCCN1CCC(Cc2cncc(-c3ccc(C(=O)O)cc3)n2)CC1,11.25%
CC(C)c1noc(CCC(=O)NCC2CC2)n1,9.816%
c1coc(CN2CCO[C@@]3(CCC[C@@H]3COCc3nccs3)C2)c1,-4.725%

From ChEMBL document CHEMBL3988442, “University of Dundee, Small-Polar-MMV Screening Library” (2021).